Values of other authors, collected in patent US20080104001A1, “ALGORITHM FOR ESTIMATION OF BINDING EQULIBRIA IN INCLUSION COMPLEXATION, HOST COMPOUNDS IDENTIFIED THEREBY AND COMPOSITIONS OF HOST COMPOUND AND PHARMACEUTICAL” (priority 2006, published 2008).
At least one structure is not confirmed: it was looked up by name or label, or the drawing left a doubt.

Settings: training set; published stability constants (Connors, 1995)

`C[C@H]1C[C@H]2[C@@H]3CCC4=CC(=O)C=C[C@]4(C)[C@@]3(F)[C@@H](O)C[C@]2(C)[C@@]1(O)C(=O)CO` [Betamethasone] and `C[C@@H]1C[C@H]2[C@@H]3CCC4=CC(=O)C=C[C@]4(C)[C@@]3(F)[C@@H](O)C[C@]2(C)[C@@]1(O)C(=O)CO` [Dexamethasone] are within 0.2 log units of each other in “Log K(1:1)” value: 3.73 for the first, 3.67 for the second.

For `CC1(C)O[C@@H]2C[C@H]3[C@@H]4CCC5=CC(=O)C=C[C@]5(C)[C@@]4(F)[C@@H](O)C[C@]3(C)[C@]2(C(=O)CO)O1` [triamcinolone acetonide], the “Log K(1:1)” value is given as 3.51.
